Test results published in the supplement of paper PMC5949888.
Most values lie at the floor of the assay. Slopes are relative: functional sequences can read slightly below zero.

What follows are substances tested on Saccharomyces cerevisiae PS128 hsf1 delta, HSF1(1-493) fusion (assay: growth estimate (transactivation domain function in HSF1 fusion, heat-shock survival) (a.u. (slope of normalised read count over time)); higher = stronger growth at 37°C, i.e. more transactivation activity). Settings: library: random library.

| Substance | growth estimate |
| --- | --- |
| SDVNIVE | < -0.25 |
| SDVRGSAPQVVLGTVDRGNP | < -0.25 |
| SDWATRVP | < -0.25 |
| SDWHIW | < -0.25 |
| SEASGREDA | -0.25 |
| SEDRESQRNLRHIGHFKELN | < -0.25 |
| SEEANIIRLSTWQRY | < -0.25 |
| SEGESVGTADACPYRPSYWQ | 1.62 |
| SEGFVTSCAVSIKVRDSATT | < -0.25 |
| SEGHPTTSFAEGTEG | < -0.25 |
| SEGVARGRSTRVTVSRIYRD | < -0.25 |
| SEHS | < -0.25 |
| SEIEKSSRSVCKIEALRFSD | < -0.25 |
| SEIFMLWGATFVATWGSTIG | < -0.25 |
| SEIPILRLSDAQTEACRRFA | < -0.25 |
| SELHCETKSRSTIPEPESPN | < -0.25 |
| SELPSKKIFPPATGGRHLCA | < -0.25 |
| SEPLSRVSERRNVTCQ | < -0.25 |
| SEQCFRSKWGMRNSKPKRAL | < -0.25 |
| SEQLSAEPARVSDLCMVLAS | < -0.25 |
| SEQQLDRVSI | < -0.25 |
| SERGYVEVRITYVRPFESS | < -0.25 |
| SESASDFAL | < -0.25 |
| SESDDQVGKYGSEVWLGYAT | -0.229 |
| SESDSAF | < -0.25 |

| Substance | growth estimate |
| --- | --- |
| SESSRI | < -0.25 |
| SETCRLGVRDPNSARPACEV | < -0.25 |
| SETPLHRYRAWYARN | < -0.25 |
| SETSLLTIRRTEASVRYRIG | < -0.25 |
| SEVFACGD | < -0.25 |
| SEVSRSTFHPSCSRG | < -0.25 |
| SEVVQARGTVAQL | < -0.25 |
| SEYYTHAPGRGGRNRE | < -0.25 |
| SFECIYVDGNDGSVGRAPSW | -0.195 |
| SFGHLVA | < -0.25 |
| SFGLACRLYARGLGVPLFLS | < -0.25 |
| SFHRGAKGE | < -0.25 |
| SFHWKLMPWCLGLVCFQPSA | 0.0112 |
| SFINRKRFGPTIRRTA | < -0.25 |
| SFLFRLLGHTVRPASQHGLS | < -0.25 |
| SFLQIARPTMCTGYNTVRNT | < -0.25 |
| SFLSQFQDLTQFSMWRRGAR | < -0.25 |
| SFLYAAEVIFADVRYALRVW | < -0.25 |
| SFPSCSQVLTPRERPGDVAL | < -0.25 |
| SFQCRGN | < -0.25 |
| SFSCVRCRQEAHMEKPRERC | < -0.25 |
| SFVGLSPIKEDTCEG | < -0.25 |
| SFVIG | < -0.25 |
| SFVLMETVRLRPYILLPTPG | < -0.25 |
| SFWSKVRVLKCRAYSRALGS | < -0.25 |

| Substance | growth estimate |
| --- | --- |
| SGADCLCDRVSRSTGRGSHV | < -0.25 |
| SGAGYRGYFNAAKCT | < -0.25 |
| SGALARCAEVAKRALREVPH | < -0.25 |
| SGATP | < -0.25 |
| SGCIRSPVRKHRCAGSPSSV | < -0.25 |
| SGCLRGEVS | < -0.25 |
| SGDGGPDRAERSKYGEGNNR | < -0.25 |
| SGDKCA | < -0.25 |
| SGDSCDDSSGDGGGR | < -0.25 |
| SGEAILKPVRANDSTEKTVS | < -0.25 |
| SGENYSTGPKRFFLALTRFS | < -0.25 |
| SGETFARTSRLYCHVECRPV | < -0.25 |
| SGFCISTIENSTECLSPSPF | < -0.25 |
| SGFNLS | < -0.25 |
| SGFPSETSRPVDLYVAPQRP | < -0.25 |
| SGFYGARRIII | < -0.25 |
| SGGAKPGPLPE | < -0.25 |
| SGGGIPALRLGDGVWV | < -0.25 |
| SGGHALAGQSFPVAGL | < -0.25 |
| SGGILMDRRAATCLQPPLIH | < -0.25 |
| SGGL | < -0.25 |
| SGGLKAVNVDGGVHNCPAYP | < -0.25 |
| SGGPASGTTVNARHAMDGLC | < -0.25 |
| SGGPVKHTVGRIDE | < -0.25 |
| SGGRDASRRLR | < -0.25 |

Taken from above (6 entries):

| Substance | growth estimate |
| --- | --- |
| SGATP | < -0.25 |
| SGCIRSPVRKHRCAGSPSSV | < -0.25 |
| SGCLRGEVS | < -0.25 |
| SGDGGPDRAERSKYGEGNNR | < -0.25 |
| SGDKCA | < -0.25 |
| SGDSCDDSSGDGGGR | < -0.25 |

(next part)

| Substance | growth estimate |
| --- | --- |
| SGGTFNSGTSRP | < -0.25 |
| SGGWRAVTYISDQLHVDRLS | < -0.25 |
| SGHPREWRL | < -0.25 |
| SGHSFGKKTSLNSSWHPG | < -0.25 |
| SGHVCRFPCLQNGQEEQARR | < -0.25 |
| SGHYAGEL | < -0.25 |
| SGIQAN | < -0.25 |
| SGISSAPRPSRCRNLASIIT | < -0.25 |
| SGKEGLVVTLY | < -0.25 |
| SGKFNYATPHIVPSGSRVRA | < -0.25 |
| SGKRDARTRQVTTHRFSRAC | < -0.25 |
| SGL | < -0.25 |
| SGLCSSTSRAEEGKAQMNCV | < -0.25 |
| SGLESSKMGLGAT | < -0.25 |
| SGLG | < -0.25 |
| SGLQWDRRKISGKRARGPYA | < -0.25 |
| SGLSISSWMWAKKEVSTEAP | < -0.25 |
| SGNGRCGRFEAGARWCARQT | < -0.25 |
| SGNGVLFAVFLSL | < -0.25 |
| SGPEVSRLLSM | -0.25 |
| SGPLPVEIRDGISVRGLVCC | < -0.25 |
| SGPLS | < -0.25 |
| SGPTADTISGGGSGEGTKGL | < -0.25 |
